Results published in patent publication US20050142141A1 (University of California, published 2005).
These are yes or no findings as the source states them, for the method shown. Some entries that bind do so weakly or less than the wild type.

By UniProt entry, the sequences of proteins in these tests, tags left out. Residues count along the entry.
UniProt P06213, residues 28-1382: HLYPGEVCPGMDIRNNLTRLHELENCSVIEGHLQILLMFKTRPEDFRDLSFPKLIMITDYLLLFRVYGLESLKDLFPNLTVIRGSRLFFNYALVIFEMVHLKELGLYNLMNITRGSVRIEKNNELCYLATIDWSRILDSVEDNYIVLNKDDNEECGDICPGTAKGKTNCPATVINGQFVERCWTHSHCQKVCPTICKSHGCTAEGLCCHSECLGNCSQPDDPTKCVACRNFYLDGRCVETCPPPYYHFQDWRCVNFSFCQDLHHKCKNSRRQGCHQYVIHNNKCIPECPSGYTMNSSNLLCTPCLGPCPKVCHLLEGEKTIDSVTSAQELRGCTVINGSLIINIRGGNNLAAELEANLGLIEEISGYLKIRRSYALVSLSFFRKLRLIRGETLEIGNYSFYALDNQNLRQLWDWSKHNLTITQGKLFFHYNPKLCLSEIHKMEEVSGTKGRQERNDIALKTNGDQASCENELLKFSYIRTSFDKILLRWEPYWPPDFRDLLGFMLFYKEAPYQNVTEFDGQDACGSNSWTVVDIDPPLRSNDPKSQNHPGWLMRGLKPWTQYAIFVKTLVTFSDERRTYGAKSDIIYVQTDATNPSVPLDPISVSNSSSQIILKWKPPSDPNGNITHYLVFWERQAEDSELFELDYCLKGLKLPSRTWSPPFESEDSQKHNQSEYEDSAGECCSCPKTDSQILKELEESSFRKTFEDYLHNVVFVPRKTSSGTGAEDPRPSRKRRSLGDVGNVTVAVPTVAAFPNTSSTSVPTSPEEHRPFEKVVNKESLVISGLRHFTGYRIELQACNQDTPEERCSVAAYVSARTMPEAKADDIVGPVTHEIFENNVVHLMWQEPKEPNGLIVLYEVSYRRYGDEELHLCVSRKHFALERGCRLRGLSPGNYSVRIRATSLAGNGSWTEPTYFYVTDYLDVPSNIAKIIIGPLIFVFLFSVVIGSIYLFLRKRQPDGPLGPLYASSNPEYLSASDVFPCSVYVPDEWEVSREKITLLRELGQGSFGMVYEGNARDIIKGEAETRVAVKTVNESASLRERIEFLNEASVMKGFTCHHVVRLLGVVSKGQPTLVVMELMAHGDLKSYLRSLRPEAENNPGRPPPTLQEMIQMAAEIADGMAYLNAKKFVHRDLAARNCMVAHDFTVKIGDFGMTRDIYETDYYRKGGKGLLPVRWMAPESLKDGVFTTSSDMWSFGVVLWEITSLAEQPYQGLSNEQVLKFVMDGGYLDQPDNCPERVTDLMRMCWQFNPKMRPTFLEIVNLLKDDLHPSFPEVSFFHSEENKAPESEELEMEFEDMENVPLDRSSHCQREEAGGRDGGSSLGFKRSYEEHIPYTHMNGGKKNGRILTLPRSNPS

Biological target: human insulin receptor on isolated human brain capillaries (human) (UniProt P06213)
Assay: radioreceptor assay on isolated human brain capillaries (FIG. 2B)

B1: Version 5 humanized HIRMAb (antibody, human IgG1, V domains shown)
VH: QVQLLESGAELVRPGSSVKISCKASGYTFTNYDIHWVKQRPGQGLEWIGWIYPGDGSTKYNEKFKGKATLTADKSSSTAYMHLSSLTSEKSAVYFCAREWAYWGQGTTVTVSA
VL: DIQMTQSPSSLSASVGERVTITCRASQDIGGNLYWYQQKPGKAPKLLIYATSSLDSGVPSRFSGSGSGTDYTFTISSLQPEDIATYYCLQYSSSPWTFGQGTKVEIKR
notes: also called version 5 HIRMAb; Version 5 humanized 83-14 HIRMAb
For B1, the binding was “binds”.
